Values quoted from earlier work in patent US7060428B2, “Methods and compositions useful for the prediction of blood-brain barrier permeation” (Wyeth, priority 2001, dated 2006).
The name of at least one read-out is uncertain.

conditions: from Crivori et al., J. Med. Chem. 2000, 43, 2204–2216; cited from earlier work

SMILES	CNS Known (known blood-brain barrier permeability)
Cc1nnc2n1-c1ccc(Cl)cc1C(c1ccccc1)=NC2 [Alprazolam]	+
CN1C(=O)CC(=O)N(c2ccccc2)c2cc(Cl)ccc21 [Clobazam]	+
CN(C)C(=O)C(CCN1CCC(O)(c2ccc(Cl)cc2)CC1)(c1ccccc1)c1ccccc1 [Loperamide]	−
